PubChem BioAssay AID1487 (National Center for Advancing Translational Sciences (NCATS), 2009)
Some of the results follow. The main result of the screen is listed elsewhere. These columns were measured beside it and carry no call. The list favours compounds with an active or inconclusive main result. Potencies come from curve fits of mixed quality, noted in brackets.

Test: qHTS Assay for Modulators of Lamin A Splicing
Settings: HeLa LMNA splicing GFP/RFP minigene ratio, 48 h
Method in brief: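 Read-out is the ratio of GFP to DsRed2 object intensity, acquired by 488 nm laser-scanning cytometry on HeLa lamin A-EGFP minigene reporter cells. Compound incubation 48 hrs at 37 °C in Opti-MEM with 2% FBS; DMSO 0.5% final.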

[1] = measured here: RFP viability control channel
[2] = measured here: GFP splicing reporter channel

| SMILES | AC50 [1] | AC50 [2] |
| --- | --- | --- |
| CN(C(=O)COC(=O)C1c2ccccc2Oc2ccccc21)C1CCS(=O)(=O)C1 (centres undefined) | 12.6 µM [falling, partial curve, poor fit] |  |
| Cc1ccc(O)c(/C=N/NC(=O)C2=NNC(c3ccccc3)(c3ccccc3)C2)c1 | 14.1 µM [rising, single point] |  |
| COC(=O)N/N=C/C1=C[N+](=O)c2ccccc2[N+]1=O | 2.82 µM [rising, full curve, poor fit] | 14.1 µM [rising, partial curve, poor fit] |
| Cn1nnnc1SCC(=O)N1CCN(c2ccc(Cl)cc2)CC1 | 15.8 µM [rising, single point] |  |
| O=C(c1nc(-c2ccc(Cl)cc2)n2c1CCCCC2)N1CCN(c2ccccc2F)CC1 | 0.0501 µM [rising, full curve, poor fit] |  |
| COc1ccccc1NC(=O)N(Cc1ccco1)Cc1cc2cc(C)cc(C)c2[nH]c1=O | 1.58 µM [rising, partial curve, poor fit] |  |
| COc1ccc(S(=O)(=O)Nc2cccc(-c3ccc(N4CCOCC4)nn3)c2)cc1F |  | 6.31 µM [falling, partial curve] |
| COc1ccccc1NS(=O)(=O)c1cccc(NC(=O)Nc2ccccc2)c1 | 12.6 µM [rising, partial curve] | 12.6 µM [rising, partial curve] |
| Cc1ccc(CS(=O)(=O)c2cn(CC(=O)N(C)c3ccccc3)c3ccccc23)cc1 | 11.2 µM [falling, partial curve] | 2.24 µM [falling, partial curve] |
| Cc1ccc(N=Cc2cccc(O)c2O)c(C)c1 | 2.51 µM [falling, partial curve] | 2.82 µM [falling, partial curve, poor fit] |
| C[C@H]1Cc2c(-c3ccccc3)nc3c(c2CO1)CN(C(=O)C1CCCCC1)CC3 | 1 µM [rising, partial curve, poor fit] |  |
| O=C1C2C3c4ccccc4C(c4ccccc43)C2C(=O)N1Cc1ccccn1 (centres undefined) | 0.316 µM [falling, full curve] |  |
| COc1ccc(N(Cc2cccs2)C(=O)c2ccccc2C)cc1 |  | 3.98 µM [rising, full curve, poor fit] |
| Cn1c(SCCOc2ccccc2Cl)nnc1-c1cccs1 | 35.5 µM [rising, single point] |  |
| Cc1[nH]c(=O)c(C(=O)/C=C/c2ccccc2)c2c1CCCC2 | 2 µM [rising, full curve] | 11.2 µM [falling, partial curve] |
| Cc1ccc2c(C)nc(N/C(N)=N/S(=O)(=O)c3ccc([N+](=O)[O-])cc3)nc2c1 | 35.5 µM [rising, single point] | 0.0282 µM [rising, full curve, poor fit] |
| COc1cccc(N=Nc2c(N)[nH][nH]c2=O)c1 | 11.2 µM [falling, partial curve, poor fit] | 10 µM [falling, partial curve] |
| N#Cc1ccc(CSc2nnc(-c3ccncc3)n2CCc2ccccc2)cc1 | 15.8 µM [rising, single point] | 11.2 µM [rising, single point] |
| CC(=O)C1=C(C)N(Cc2ccccc2)C(=O)N[C@@H]1c1cccc(C(F)(F)F)c1 | 35.5 µM [rising, single point] |  |

| SMILES | AC50 [1] | AC50 [2] |
| --- | --- | --- |
| Cc1nc2sccn2c1-c1nc(-c2cc3ccccc3o2)cs1 |  | 39.8 µM [rising, partial curve, poor fit] |
| N#CC(C(=O)NC1CC1)c1nc2ccccc2nc1N1CCCC1 (centres undefined) | 35.5 µM [rising, single point] |  |
| COc1cc(Cn2c(N)c(C#N)c3nc4ccccc4nc32)cc(OC)c1 | 2.82 µM [rising, partial curve, poor fit] | 2.82 µM [rising, partial curve, poor fit] |
| Cc1cc(=O)oc2cc(OCc3ccc(C(=O)N4CCN(c5ccc([N+](=O)[O-])cc5)CC4)cc3)ccc12 | 15.8 µM [rising, partial curve] |  |
| CCOC(=O)c1c(NC(=O)COc2ncnc3ccccc23)sc(C)c1C |  | 11.2 µM [rising, partial curve] |
| O=C(Nc1cccc([N+](=O)[O-])c1)C(=O)N1CCCCC1 | 0.00316 µM [falling, full curve, poor fit] |  |
| Fc1ccc(Nc2ncncc2-c2ccccc2C(F)(F)F)cc1 |  | 0.1 µM [falling, full curve, poor fit] |
| Cc1cccc(-n2nnnc2SCn2nnc3ccccc3c2=O)c1 | 14.1 µM [rising, single point] |  |
| CC(C)(CNC(=S)NCCc1ccccc1)CNC(=S)NCCc1ccccc1 | 20 µM [rising, partial curve] | 15.8 µM [rising, single point] |
| O=C(CNC(=O)c1ccco1)OCc1ccc(C(=O)c2ccccc2)cc1 | 17.8 µM [falling, partial curve, poor fit] | 35.5 µM [falling, single point] |
| CCn1cnc2c(cnn2-c2ccccc2)c1=O |  | 14.1 µM [rising, single point] |
| Cc1nn(C)c(C)c1CNC(=O)c1cc2n(n1)C(C(F)(F)F)CC(c1cccs1)N2 (centres undefined) | 14.1 µM [rising, partial curve] | 10 µM [rising, partial curve] |
| Cc1nc(N2CCCC2)c2c(C(=O)Nc3ccc(C)c(Cl)c3)c(C)oc2n1 | 1.26 µM [rising, full curve, poor fit] |  |
| COc1ccc(-c2noc(CN(C)C(=O)Nc3ccccc3)n2)cc1 | 22.4 µM [rising, partial curve, poor fit] |  |
| COc1ccc(S(=O)(=O)N(CC(=O)N2CCN(c3ccccc3)CC2)c2ccccc2)cc1 | 31.6 µM [rising, single point] |  |
| CCC(=O)N1CCN(c2ccccc2NC(=O)c2ccc(-c3cccc([N+](=O)[O-])c3)o2)CC1 | 3.98 µM [rising, full curve] |  |
| Cc1ccc(/C=N/NC(=O)CSc2nc3ccccc3c(=O)n2-c2ccccc2)s1 | 0.141 µM [rising, full curve, poor fit] | 0.178 µM [rising, full curve, poor fit] |
| O=c1c2cn[nH]c2nc(SCc2ccc3c(c2)OCCO3)n1-c1ccccc1 |  | 35.5 µM [rising, single point] |
| Cc1ccc(OCc2nc(C#N)c(NCCCn3ccnc3)o2)cc1 | 15.8 µM [rising, single point] |  |

| SMILES | AC50 [1] | AC50 [2] |
| --- | --- | --- |
| COc1ccc(OC)c(Nc2ccc(Nc3cc(OC)ccc3OC)nn2)c1 | 17.8 µM [rising, single point] |  |
| CC1CCCN(Cc2csc(N)n2)C1 (centres undefined) | 0.02 µM [falling, full curve, poor fit] | 0.0562 µM [falling, full curve, poor fit] |
| COc1ccc(/C=C/c2nc3ccccc3n2C)cc1 | 35.5 µM [falling, single point] | 28.2 µM [falling, single point] |
| Cc1c(NC(=O)/C(C#N)=C/c2ccc(-c3ccc(Cl)cc3)o2)c(=O)n(-c2ccccc2)n1C | 35.5 µM [rising, single point] |  |
| O=S(=O)(Nc1cccc(Cl)c1)c1ccc2[nH]c3c(c2c1)CCCCCC3 | 22.4 µM [falling, partial curve] | 12.6 µM [falling, partial curve] |
| CCOC(=O)Cc1nnc(NC(=O)CSc2ncc(-c3ccccc3)nn2)s1 |  | 6.31 µM [rising, single point] |
| COc1ccc(NC(=O)C2CCCN(S(=O)(=O)c3c(C)n[nH]c3C)C2)cc1 (centres undefined) | 31.6 µM [rising, single point] |  |
| Clc1ccc(Nc2ccc(NCc3ccccc3)nn2)cc1 | 25.1 µM [rising, single point] | 1.26 µM [rising, partial curve] |
| COc1ccccc1-c1ccc2ncnc(NC3CCNCC3)c2c1 |  | 11.2 µM [falling, partial curve] |
| Cc1coc2c1C(=O)C(=O)c1c-2ccc2c1CCCC2(C)C | 14.1 µM [falling, single point] | 17.8 µM [falling, single point] |
| CC(C)c1ccc(S(=O)(=O)N2CCN(C(=S)NCc3ccco3)CC2)cc1 | 25.1 µM [rising, single point] |  |
| Cn1c(/N=C/c2c(O)ccc3ccccc23)nc2ccccc21 | 5.62 µM [rising, single point] |  |
| O=c1c(-c2ccccc2)nc2cnc(Oc3ccccc3)nc2n1C[C@H]1CCCO1 |  | 6.31 µM [falling, partial curve] |
| CCCCN(CCCNC(=O)CN1N=C(c2ccccc2)CCC1=O)c1ccccc1 |  | 35.5 µM [falling, single point] |
| O=C(COc1ccccc1Cl)Nc1nc2c(s1)CCCC2 |  | 35.5 µM [falling, partial curve, poor fit] |
| O=C(CSc1nc(C2CCCCC2)nc2ccccc12)NCc1ccc2c(c1)OCO2 | 15.8 µM [rising, single point] |  |
| O=[N+]([O-])c1ccc(CN2CCN(Cc3c[nH]c4ccccc34)CC2)cc1 |  | 3.16 µM [falling, partial curve, poor fit] |
| COc1ccc(Br)cc1CN(C)C(C)C(=O)Nc1cc([N+](=O)[O-])ccc1OC (centres undefined) | 10 µM [rising, partial curve, poor fit] |  |

Filtered by structure: the entries above with a CF3 group

| SMILES | AC50 [1] | AC50 [2] |
| --- | --- | --- |
| CC(=O)C1=C(C)N(Cc2ccccc2)C(=O)N[C@@H]1c1cccc(C(F)(F)F)c1 | 35.5 µM [rising, single point] |  |
| Fc1ccc(Nc2ncncc2-c2ccccc2C(F)(F)F)cc1 |  | 0.1 µM [falling, full curve, poor fit] |
| Cc1nn(C)c(C)c1CNC(=O)c1cc2n(n1)C(C(F)(F)F)CC(c1cccs1)N2 (centres undefined) | 14.1 µM [rising, partial curve] | 10 µM [rising, partial curve] |
